According to publication PMC9590138:
Results are given in words; binding and its absence hold for the method and conditions named. For some assays here: In cells and extracts the contact can be indirect. Some results given as binding are weak or reduced against the parent protein; the word gives no strength.

Amino acid sequences for entries named in this document (tags omitted). A change or cut given only in a name is not applied to a line headed by its entry. Residues count along the entry.
UniProt P06756: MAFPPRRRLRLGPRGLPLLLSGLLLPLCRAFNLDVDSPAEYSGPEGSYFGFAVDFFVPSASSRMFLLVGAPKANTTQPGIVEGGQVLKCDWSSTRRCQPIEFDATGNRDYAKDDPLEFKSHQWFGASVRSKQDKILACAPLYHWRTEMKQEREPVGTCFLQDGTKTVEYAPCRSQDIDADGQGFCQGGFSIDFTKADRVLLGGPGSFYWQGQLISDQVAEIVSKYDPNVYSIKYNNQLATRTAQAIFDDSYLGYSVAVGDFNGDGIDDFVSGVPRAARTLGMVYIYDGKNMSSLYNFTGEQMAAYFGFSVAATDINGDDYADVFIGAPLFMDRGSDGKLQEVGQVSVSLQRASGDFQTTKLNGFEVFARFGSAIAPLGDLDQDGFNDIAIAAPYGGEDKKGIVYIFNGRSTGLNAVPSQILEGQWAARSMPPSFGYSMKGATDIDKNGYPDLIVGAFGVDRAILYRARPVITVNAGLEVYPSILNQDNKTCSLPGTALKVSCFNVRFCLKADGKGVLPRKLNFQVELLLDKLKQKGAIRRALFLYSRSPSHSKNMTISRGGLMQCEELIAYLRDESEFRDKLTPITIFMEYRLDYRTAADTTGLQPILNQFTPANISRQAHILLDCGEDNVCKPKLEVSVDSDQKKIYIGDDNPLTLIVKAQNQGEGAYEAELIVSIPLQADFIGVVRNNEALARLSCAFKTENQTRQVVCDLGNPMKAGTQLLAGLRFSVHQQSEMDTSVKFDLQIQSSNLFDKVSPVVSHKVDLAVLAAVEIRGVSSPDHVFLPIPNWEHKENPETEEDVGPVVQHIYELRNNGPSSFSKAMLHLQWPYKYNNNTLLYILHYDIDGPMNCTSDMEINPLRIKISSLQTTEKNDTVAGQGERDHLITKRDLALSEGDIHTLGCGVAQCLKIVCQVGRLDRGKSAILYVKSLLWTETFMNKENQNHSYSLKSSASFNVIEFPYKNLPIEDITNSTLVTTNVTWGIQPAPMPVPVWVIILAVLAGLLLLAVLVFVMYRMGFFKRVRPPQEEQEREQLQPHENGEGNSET
UniProt P05106: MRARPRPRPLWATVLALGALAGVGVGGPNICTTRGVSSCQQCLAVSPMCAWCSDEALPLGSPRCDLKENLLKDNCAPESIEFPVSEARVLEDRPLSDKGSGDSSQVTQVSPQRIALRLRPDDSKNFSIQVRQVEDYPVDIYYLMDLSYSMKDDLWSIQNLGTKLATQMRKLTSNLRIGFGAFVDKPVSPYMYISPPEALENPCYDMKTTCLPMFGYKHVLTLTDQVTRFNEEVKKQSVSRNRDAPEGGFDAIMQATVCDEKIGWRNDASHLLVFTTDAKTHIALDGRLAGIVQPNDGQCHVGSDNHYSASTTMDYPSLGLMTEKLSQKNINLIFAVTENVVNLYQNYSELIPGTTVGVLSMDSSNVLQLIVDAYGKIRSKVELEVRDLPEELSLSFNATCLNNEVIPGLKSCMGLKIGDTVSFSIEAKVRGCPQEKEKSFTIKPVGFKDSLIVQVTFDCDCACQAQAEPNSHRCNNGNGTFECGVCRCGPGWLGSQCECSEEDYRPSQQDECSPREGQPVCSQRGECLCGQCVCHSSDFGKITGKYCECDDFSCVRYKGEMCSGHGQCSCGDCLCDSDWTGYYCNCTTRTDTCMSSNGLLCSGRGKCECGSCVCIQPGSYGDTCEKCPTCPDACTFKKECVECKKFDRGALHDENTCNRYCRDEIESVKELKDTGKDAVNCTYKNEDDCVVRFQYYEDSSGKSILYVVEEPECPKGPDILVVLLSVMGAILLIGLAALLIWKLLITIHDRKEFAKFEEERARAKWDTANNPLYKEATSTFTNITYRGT
UniProt P35968, residues 20-1356: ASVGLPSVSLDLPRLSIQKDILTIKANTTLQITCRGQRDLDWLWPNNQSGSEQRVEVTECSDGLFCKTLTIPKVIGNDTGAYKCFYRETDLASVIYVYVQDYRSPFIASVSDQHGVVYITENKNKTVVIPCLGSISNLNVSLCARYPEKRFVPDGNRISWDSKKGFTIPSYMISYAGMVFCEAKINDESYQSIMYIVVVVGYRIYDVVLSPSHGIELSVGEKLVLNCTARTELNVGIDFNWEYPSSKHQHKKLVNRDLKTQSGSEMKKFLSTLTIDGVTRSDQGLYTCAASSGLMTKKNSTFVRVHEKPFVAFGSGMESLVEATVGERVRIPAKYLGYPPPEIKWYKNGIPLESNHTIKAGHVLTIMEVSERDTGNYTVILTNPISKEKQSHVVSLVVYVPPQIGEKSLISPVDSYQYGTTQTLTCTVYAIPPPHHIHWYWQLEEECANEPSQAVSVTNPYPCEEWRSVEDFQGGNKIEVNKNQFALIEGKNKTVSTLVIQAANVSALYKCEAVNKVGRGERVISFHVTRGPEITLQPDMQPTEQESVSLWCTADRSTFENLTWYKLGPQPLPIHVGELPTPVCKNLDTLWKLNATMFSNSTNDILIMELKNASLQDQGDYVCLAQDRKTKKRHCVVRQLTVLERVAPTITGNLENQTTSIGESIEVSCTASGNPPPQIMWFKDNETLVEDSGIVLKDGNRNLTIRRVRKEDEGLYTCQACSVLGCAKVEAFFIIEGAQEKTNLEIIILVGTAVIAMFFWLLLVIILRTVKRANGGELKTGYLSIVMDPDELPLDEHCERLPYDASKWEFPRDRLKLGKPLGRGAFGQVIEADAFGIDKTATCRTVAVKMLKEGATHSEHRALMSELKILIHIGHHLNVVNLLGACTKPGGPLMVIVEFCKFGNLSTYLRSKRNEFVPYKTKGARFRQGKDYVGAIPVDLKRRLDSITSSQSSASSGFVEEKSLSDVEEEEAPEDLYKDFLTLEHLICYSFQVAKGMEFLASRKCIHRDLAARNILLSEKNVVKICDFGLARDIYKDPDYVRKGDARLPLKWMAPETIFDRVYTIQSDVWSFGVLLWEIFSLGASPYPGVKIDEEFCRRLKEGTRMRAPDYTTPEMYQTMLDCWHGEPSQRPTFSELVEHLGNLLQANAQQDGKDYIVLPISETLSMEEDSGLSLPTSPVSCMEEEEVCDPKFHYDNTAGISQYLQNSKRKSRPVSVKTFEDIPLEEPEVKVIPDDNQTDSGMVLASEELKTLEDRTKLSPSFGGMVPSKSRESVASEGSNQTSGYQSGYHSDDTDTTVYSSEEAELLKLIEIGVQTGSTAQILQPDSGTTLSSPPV

T1: membrane CD146 (endogenous) (human (endogenous in U87, U373, HUVEC)) (UniProt P43121)
T1 sequence: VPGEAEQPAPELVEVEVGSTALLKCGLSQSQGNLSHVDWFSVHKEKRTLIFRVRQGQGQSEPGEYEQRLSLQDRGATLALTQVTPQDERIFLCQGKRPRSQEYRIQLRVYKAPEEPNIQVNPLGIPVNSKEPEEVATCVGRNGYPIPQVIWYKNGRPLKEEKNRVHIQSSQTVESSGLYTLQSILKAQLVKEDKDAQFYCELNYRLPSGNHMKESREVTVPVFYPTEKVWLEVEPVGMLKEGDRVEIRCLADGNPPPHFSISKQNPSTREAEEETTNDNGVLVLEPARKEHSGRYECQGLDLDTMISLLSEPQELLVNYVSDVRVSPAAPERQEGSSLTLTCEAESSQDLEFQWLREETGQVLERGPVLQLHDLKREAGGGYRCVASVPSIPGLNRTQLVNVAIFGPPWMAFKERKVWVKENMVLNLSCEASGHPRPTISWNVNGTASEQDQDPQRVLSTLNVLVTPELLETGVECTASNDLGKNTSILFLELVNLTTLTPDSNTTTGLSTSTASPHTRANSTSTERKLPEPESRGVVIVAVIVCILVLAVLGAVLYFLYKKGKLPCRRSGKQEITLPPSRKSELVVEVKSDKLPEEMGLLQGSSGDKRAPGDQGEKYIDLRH


Legend:
[1] = molecular target: T2, integrin αvβ3 (endogenous) (human (endogenous in U87, U373, HUVEC)) (UniProt P06756+P05106); assay: flow cytometry on cells; sCD146-FITC binding to U87 cells transfected with siRNA targeting αv, β3, αL or β2; only the binder purified
[2] = molecular target: T2, integrin αvβ3 (endogenous) (human (endogenous in U87, U373, HUVEC)); assay: flow cytometry on cells; sCD146-FITC binding to U373 cells transfected with siRNA targeting αv, β3, αL or β2 (Fig. S8B); only the binder purified
[3] = molecular target: integrin αvβ3 expressed in CHO cells (UniProt P06756); assay: flow cytometry on cells; sCD146-FITC binding to CHO cells co-transfected with plasmids encoding αv and β3 or control plasmids (mock); only the binder purified
[4] = molecular target: T2, integrin αvβ3 (endogenous) (human (endogenous in U87, U373, HUVEC)); assay: co-IP; HUVEC; co-immunoprecipitation, bait not told in the text shown (Fig. S14)
[5] = molecular target: T1, membrane CD146 (endogenous) (human (endogenous in U87, U373, HUVEC)); assay: co-IP; U87 cells; immunoprecipitation with anti-CD146 antibody S-Endo1, blots with anti-VEGFR2, anti-αv, anti-β3 and anti-EPCAM
[6] = molecular target: T1, membrane CD146 (endogenous) (human (endogenous in U87, U373, HUVEC)); assay: co-IP; U373 cells; as in U87: immunoprecipitation with anti-CD146 antibody S-Endo1 (Fig. S12A)
[7] = molecular target: T1, membrane CD146 (endogenous) (human (endogenous in U87, U373, HUVEC)); assay: co-IP; HUVEC; co-immunoprecipitation, bait not told in the text shown (Fig. S14)

Molecule	binding [1]	binding [2]	binding [3]	binding [4]	binding [5]	binding [6]	binding [7]
sCD146-FITC (from UniProt P43121 24-559) (ligand)	binds	binds	binds				
VEGFR2 (endogenous) (from UniProt P35968 20-1356) (receptor)				binds	binds	binds	

The remaining lines, values ahead:

binding [1]	binding [2]	binding [3]	binding [4]	binding [5]	binding [6]	binding [7]	Molecule
				binds	binds	binds	integrin αvβ3 (endogenous) (from UniProt P06756 31-1048; P05106 27-788) (receptor)
				no binding	no binding		EPCAM (endogenous) (protein, UniProt P16422 24-314) QEECVCENYKLAVNCFVNNNRQCQCTSVGAQNTVICSKLAAKCLVMKAEMNGSKLGRRAKPEGALQNNDGLYDPDCDESGLFKAKQCNGTSMCWCVNTAGVRRTDKDTEITCSERVRTYWIIIELKHKAREKPYDSKSLRTALQKEITTRYQLDPKFITSILYENNVITIDLVQNSSQKTQNDVDIADVAYYFEKDVKGESLFHSKKMDLTVNGEQLDLDPGQTLIYYVDEKAPEFSMQGLKAGVIAVIVVVVIAVVAGIVVLVISRKKRMAKYEKAEIKEMGEMHRELNA
